Results on 94 sequences are retold here after the supplement of paper PMC3334620.

In all, about 33,000 sequences were measured (“E-score (-0.5 to 0.5)”: median about -8e-05, highest 2% from about 0.23 on). Some of the results follow.

The target in this test is T1, Nrg2 (UniProt P38082).
T1 sequence: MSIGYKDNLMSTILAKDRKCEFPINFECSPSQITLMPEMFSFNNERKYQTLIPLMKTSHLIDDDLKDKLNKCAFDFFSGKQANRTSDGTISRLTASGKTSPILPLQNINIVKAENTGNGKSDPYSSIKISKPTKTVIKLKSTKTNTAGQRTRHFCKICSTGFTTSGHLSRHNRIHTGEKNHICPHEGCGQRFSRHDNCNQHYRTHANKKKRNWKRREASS
As to the kind of experiment: PBM E-score (8-mer binding enrichment) (E-score (-0.5 to 0.5)); higher = stronger / more preferred TF binding. As to conditions: protein concentration: 100 nM; construct: GST-full length. Put shortly: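 PURExpress in vitro transcription/translation supplied GST-tagged yeast transcription factors, either full-length or DNA-binding domain. Applied at about 100-200 nM to universal all-10-mer Agilent arrays double-stranded by primer extension, the bound protein was detected with fluorescent anti-GST. E-scores, modified Wilcoxon-Mann-Whitney statistics, were given by the Universal PBM Analysis Suite to ungapped eight-base words pooled with their reverse complements after masliner normalisation.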
For the sequence GAGTGCTA, the “PBM E-score” value is 0.0892.
Then CGCGCTCC, with 0.16; and AGTTTGTC, with 0.0265; and AAATCAAA, with 0.0914.
Consider TGAACCAA, for which the “PBM E-score” value came to 0.177.
With ACGGTATG the figure was -0.0109; with AGTTACCG, 0.188; with ATCGCTAC, -0.0723.
For CATATTCG, the “PBM E-score” value was determined as 0.0131.
Then GCGTATAA, with 0.0692; and GTAGACAA, with 0.0942.
Regarding GGACTTGA, the “PBM E-score” value is -0.122.
Then ACGGGCCC, with -0.121; and CGGACGAA, with 0.233; and ATTAAACC, with 0.199.
With ATTCTTGG the figure was 0.12.
ATCAATGA: the “PBM E-score” value was 0.0818.
For AGACCCCT, the “PBM E-score” value stood at 0.158.
As to GGCCCACC, the “PBM E-score” value is -0.072.
On to ACGTACTA, for which the “PBM E-score” value was 0.0769.
Turning to CGATTCTC, the “PBM E-score” value came to 0.0381.
For GAGGGGAA, the “PBM E-score” value was -0.0475.
Take CCTACTCC: the “PBM E-score” value is -0.142.
Turning to GACCCGCA, the “PBM E-score” value was -0.0796.
With GCGCTCCA the figure was -0.0775; with ATCCTCCG, -0.144; with CGACACTC, -0.00057.
Then GACAATAA, with 0.218.
As to CTAGTAAC, the “PBM E-score” value came out at 0.00138.
On to CAGCGCGG, for which the “PBM E-score” value was found to be 0.0844.
ATCGTCGC: the “PBM E-score” value was found to be 0.158.
Regarding CGACGGAG, the “PBM E-score” value is -0.0561.
Then ATTGATGG, with 0.12; and CACCGGTG, with -0.257; and CCGTTCAC, with -0.146.
Then GAAGGTCA, with -0.204.
Then CCTACGAA, with -0.00141.
For the sequence ACCTCCTC, the “PBM E-score” value is -0.259.
On to CCGAAAGA, for which the “PBM E-score” value was -0.0556.
Then CTTGTGTA, with 0.0975; and CCCTTCTC, with -0.205; and GAATCTCC, with -0.0275.
Turning to CGCATCGC, the “PBM E-score” value was -0.2.
On to ATATAGAT, for which the “PBM E-score” value turned out to be 0.0507.
Consider GTCGTGTA, for which the “PBM E-score” value amounted to 0.0206.
In the case of AACCCACG, the “PBM E-score” value worked out at 0.067.
Then CACCCCAG, with 0.0184.
With AGGTTGGG the figure was -0.086; with AATCCACA, -0.00959.
With CCGTCAAC the figure was -0.197.
On to AGTATGAC, for which the “PBM E-score” value was 0.0675.
Then AATATCCA, with 0.112; and TCACCCCA, with 0.113; and GCGATGAC, with -0.0214.
GAGTGGAC: the “PBM E-score” value came to 0.00399.
Then CCGTGATA, with -0.147.
Take AAAATGTG: the “PBM E-score” value amounted to 0.141.
With ACCCTCAC the figure was -0.121; with AAACCAGG, 0.071.
Regarding ATAGCTGA, the “PBM E-score” value was determined as 0.0222.
With GATTTCCA the figure was 0.0729; with AAGCTAGA, -0.029.
As to CGCACCTC, the “PBM E-score” value was -0.202.
As to GGAAGATA, the “PBM E-score” value was found to be 0.0956.
For CAGTTGCA, the “PBM E-score” value amounted to 0.0592.
On to GTAGCAAA, for which the “PBM E-score” value came to 0.0619.
Then CATGTTAC, with 0.137.
Then CCGGCCGA, with -0.00544; and CCATAGCC, with -0.175.
Turning to CAGCCCCG, the “PBM E-score” value is -0.0989.
Regarding TAGCGTCA, the “PBM E-score” value was -0.158.
With ATCGGCAT the figure was 0.124; with CACTCTTC, -0.0562; with GTTAATGA, 0.0108.
With CACGCAGG the figure was 0.0602.
With AAGACATC the figure was -0.123.
For CGACAGCC, the “PBM E-score” value was determined as 0.026.
In the case of GGTCCATA, the “PBM E-score” value is -0.0767.
With ATCCTGGA the figure was -0.0444.
With ATGATTTC the figure was 0.164; with GTGAAACA, -0.0388; with CCCCCAGG, -0.262.
Take GTAGCCTA: the “PBM E-score” value is -0.307.
Then CGACATTA, with 0.0834.
With CGTAAAAC the figure was -0.0855; with GCATTGAA, 0.0708.
As for GTAGCGAC, the “PBM E-score” value is -0.0189.
Turning to AGGTAGTC, the “PBM E-score” value was -0.159.
As to GGCCTAGA, the “PBM E-score” value was -0.0429.
For AGCCAGAC, the “PBM E-score” value was -0.0854.
Then ACTCTGAC, with 0.0113; and GACAGGAC, with 0.0451; and ACTCATCG, with -0.0915.
With GGCCAGGA the figure was 0.022.
